The target of the experiment is T1, His-GFP-SSSCA1 (SSSCA1 FL, residues A2-H199) (human) (UniProt O60232).
T1 sequence: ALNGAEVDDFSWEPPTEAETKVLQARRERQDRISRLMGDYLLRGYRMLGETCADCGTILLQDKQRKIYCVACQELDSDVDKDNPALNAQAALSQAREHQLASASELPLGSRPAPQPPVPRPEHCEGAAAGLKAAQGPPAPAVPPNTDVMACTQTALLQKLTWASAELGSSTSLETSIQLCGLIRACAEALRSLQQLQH
Description: affinity purification with mass spectrometry; tandem-affinity purification (His SpinTrap, then GFP-Trap A beads) of His-GFP-SSSCA1 from lysates of transfected HeLa, SW480 or LNCaP cells, 18 h after transfection; 50 mM HEPES pH 7.4, 150 mM NaCl, 5% glycerol, 0.5% NP40; gel slices, LC-MS/MS.

No constants are given. Whether binding was seen depends on the method and setting. Binding seen in cells or lysates may run through a third protein. These calls come from enrichment with a bait or labelling near it, and not all partners need be listed. Sequences can lack the tags named with a protein.

B1: rRNA methyltransferase MRM2, endogenous (enzyme, UniProt Q9UI43 19-246)
chain: TVGSRCKNRTGAEHLWLTRHLRDPFVKAAKVESYRCRSAFKLLEVNERHQILRPGLRVLDCGAAPGAWSQVAVQKVNAAGTDPSSPVGFVLGVDLLHIFPLEGATFLCPADVTDPRTSQRILEVLPGRRADVILSDMAPNATGFRDLDHDRLISLCLTLLSVTPDILQPGGTFLCKTWAGSQSRRLQRRLTEEFQNVRIIKPEASRKESSEVYFLATQYHGRKGTVKQ
In the case of B1, the binding result was “binds”.

The record behind these values is paper PMC7070046.
